From article PMC10064699
These are yes or no findings as the source states them, for the method shown. Binding seen in cells or lysates may run through a third protein. Binding calls can cover weak binding; strength is not graded here.

Protein sequences, listed by entry. Tags and fused reporters are not part of them. Lines headed by an entry give the natural chain unless they say otherwise; changes in a name come on top.
UniProt Q386W1: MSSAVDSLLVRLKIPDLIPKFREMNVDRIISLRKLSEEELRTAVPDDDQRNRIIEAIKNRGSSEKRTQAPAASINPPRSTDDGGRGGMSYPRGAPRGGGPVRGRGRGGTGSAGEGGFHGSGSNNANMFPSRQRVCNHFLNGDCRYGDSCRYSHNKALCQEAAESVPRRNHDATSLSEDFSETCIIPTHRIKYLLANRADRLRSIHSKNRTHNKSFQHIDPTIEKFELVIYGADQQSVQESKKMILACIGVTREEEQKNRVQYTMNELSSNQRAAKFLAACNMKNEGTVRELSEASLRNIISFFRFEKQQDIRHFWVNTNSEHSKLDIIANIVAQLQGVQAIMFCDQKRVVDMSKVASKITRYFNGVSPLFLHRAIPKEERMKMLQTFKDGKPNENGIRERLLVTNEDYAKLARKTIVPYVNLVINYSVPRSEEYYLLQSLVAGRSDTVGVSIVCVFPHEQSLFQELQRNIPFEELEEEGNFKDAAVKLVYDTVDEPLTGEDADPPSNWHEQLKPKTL
UniProt Q57TY3: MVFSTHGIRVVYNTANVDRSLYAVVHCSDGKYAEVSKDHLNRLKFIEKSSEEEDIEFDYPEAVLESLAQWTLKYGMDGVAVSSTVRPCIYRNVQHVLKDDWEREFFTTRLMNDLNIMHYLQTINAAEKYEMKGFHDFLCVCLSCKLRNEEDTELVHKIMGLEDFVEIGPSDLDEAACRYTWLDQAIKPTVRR

Target: TAP-ZC3H41 (Trypanosoma brucei) (UniProt Q386W1)
Test: co-IP; TAP-tagged proteins immunoprecipitated on rabbit IgG paramagnetic beads from extracts of UV-irradiated or non-irradiated cells treated with RNase A and DNase I; beads washed with 1 M NaCl, 0.5% IGEPAL; PNK labelling with 32P, SDS-PAGE, PhosphorImager and immunoblot

For “ZC3H41-associated protein (Z41AP), endogenous (from UniProt Q57TY3)”, the binding was “binds”.
